Results are given in words; binding and its absence hold for the method and conditions named. In cells and extracts the contact can be indirect. Some results given as binding are weak or reduced against the parent protein; the word gives no strength.

Chains of the proteins cited; added tags and fusions are not shown. Lines headed by an entry give the natural chain unless they say otherwise; changes in a name come on top. A line that says so, or that is headed by a name, gives the form on record, which may keep a tag or linker. Residues count along the entry.
UniProt Q9NR31, residues 18-198: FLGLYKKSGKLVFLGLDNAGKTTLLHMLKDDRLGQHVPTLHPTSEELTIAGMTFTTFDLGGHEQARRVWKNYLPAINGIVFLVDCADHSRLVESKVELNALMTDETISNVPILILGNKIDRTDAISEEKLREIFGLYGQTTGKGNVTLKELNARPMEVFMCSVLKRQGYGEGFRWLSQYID
Sec23A (COPII subunit) of rat liver cytosol (B5DFC3, form named): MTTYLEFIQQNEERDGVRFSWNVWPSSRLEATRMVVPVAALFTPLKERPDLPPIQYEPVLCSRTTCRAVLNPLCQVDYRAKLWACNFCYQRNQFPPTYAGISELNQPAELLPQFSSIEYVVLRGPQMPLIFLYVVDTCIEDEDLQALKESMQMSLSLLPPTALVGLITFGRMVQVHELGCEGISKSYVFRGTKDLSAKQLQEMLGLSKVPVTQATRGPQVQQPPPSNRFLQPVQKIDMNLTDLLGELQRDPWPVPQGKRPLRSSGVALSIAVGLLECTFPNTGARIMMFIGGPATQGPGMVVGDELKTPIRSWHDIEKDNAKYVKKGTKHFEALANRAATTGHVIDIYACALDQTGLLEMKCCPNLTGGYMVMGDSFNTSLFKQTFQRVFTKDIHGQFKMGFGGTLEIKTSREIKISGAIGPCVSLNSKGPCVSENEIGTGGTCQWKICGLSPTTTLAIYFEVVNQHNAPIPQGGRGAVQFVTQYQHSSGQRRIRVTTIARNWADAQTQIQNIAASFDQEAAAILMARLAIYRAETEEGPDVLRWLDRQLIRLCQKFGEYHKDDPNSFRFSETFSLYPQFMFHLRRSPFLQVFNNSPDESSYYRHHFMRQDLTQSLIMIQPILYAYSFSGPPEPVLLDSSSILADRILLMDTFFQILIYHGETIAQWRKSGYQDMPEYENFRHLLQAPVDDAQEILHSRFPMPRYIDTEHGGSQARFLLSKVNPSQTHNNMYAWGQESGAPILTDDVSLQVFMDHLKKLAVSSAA

For the assay, the target named is GST-tagged human Sar1A depleted of its N-terminal amphipathic helix (GST-Sar1A^Δ1-17) (human) (UniProt Q9NR31). Kind of assay: pull-down.

In the case of “Sec23A (COPII subunit) of rat liver cytosol (from UniProt B5DFC3 1-765)”, the binding entry is recorded as “binds”.

The values are drawn from publication doi:10.1101/2020.02.12.945162.
